Results published in article PMC6989403.
These are yes or no findings as the source states them, for the method shown. Binding seen in cells or lysates may run through a third protein. A yes stands for co-enrichment or nearness to the bait. Other partners may have been found. Tags and fused reporters may be left off the sequences shown.

Sequences of proteins named here, by UniProt entry; tags and fusion partners are left off.
UniProt Q16531: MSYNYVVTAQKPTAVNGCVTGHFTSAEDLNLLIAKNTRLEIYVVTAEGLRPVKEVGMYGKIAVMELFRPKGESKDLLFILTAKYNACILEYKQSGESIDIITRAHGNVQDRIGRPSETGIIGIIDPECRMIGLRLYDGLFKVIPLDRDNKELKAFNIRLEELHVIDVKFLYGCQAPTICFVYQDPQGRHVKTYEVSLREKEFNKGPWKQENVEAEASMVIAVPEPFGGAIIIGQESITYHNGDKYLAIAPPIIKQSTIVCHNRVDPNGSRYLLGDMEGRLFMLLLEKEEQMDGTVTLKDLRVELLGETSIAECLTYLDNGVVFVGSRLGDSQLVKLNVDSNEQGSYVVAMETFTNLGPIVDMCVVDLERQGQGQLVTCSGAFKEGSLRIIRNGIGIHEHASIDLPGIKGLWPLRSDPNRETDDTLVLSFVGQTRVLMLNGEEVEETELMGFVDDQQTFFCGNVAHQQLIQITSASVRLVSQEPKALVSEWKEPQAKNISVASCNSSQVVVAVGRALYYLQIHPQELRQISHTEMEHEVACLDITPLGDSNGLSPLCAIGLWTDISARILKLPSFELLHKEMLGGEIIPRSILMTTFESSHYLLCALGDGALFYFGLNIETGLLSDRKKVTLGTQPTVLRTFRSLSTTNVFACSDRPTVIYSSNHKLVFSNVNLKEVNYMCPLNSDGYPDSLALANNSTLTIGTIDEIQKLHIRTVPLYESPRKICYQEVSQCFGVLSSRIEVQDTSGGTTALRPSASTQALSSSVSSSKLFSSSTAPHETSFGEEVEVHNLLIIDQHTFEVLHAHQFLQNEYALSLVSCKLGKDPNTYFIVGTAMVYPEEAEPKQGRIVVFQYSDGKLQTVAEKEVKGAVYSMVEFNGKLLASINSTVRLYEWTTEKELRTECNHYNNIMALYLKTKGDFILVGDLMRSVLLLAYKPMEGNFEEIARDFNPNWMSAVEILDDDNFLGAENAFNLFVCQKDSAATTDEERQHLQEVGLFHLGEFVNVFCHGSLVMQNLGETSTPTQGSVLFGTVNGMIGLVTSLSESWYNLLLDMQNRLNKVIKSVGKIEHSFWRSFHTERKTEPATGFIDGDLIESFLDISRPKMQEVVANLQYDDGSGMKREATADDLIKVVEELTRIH
UniProt P09429: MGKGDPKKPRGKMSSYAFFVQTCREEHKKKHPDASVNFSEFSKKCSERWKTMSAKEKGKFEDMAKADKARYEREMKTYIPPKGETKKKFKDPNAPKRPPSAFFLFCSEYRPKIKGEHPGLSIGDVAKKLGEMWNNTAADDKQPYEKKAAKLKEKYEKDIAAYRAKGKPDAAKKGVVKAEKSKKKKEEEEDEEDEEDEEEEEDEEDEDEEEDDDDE
UniProt P35579: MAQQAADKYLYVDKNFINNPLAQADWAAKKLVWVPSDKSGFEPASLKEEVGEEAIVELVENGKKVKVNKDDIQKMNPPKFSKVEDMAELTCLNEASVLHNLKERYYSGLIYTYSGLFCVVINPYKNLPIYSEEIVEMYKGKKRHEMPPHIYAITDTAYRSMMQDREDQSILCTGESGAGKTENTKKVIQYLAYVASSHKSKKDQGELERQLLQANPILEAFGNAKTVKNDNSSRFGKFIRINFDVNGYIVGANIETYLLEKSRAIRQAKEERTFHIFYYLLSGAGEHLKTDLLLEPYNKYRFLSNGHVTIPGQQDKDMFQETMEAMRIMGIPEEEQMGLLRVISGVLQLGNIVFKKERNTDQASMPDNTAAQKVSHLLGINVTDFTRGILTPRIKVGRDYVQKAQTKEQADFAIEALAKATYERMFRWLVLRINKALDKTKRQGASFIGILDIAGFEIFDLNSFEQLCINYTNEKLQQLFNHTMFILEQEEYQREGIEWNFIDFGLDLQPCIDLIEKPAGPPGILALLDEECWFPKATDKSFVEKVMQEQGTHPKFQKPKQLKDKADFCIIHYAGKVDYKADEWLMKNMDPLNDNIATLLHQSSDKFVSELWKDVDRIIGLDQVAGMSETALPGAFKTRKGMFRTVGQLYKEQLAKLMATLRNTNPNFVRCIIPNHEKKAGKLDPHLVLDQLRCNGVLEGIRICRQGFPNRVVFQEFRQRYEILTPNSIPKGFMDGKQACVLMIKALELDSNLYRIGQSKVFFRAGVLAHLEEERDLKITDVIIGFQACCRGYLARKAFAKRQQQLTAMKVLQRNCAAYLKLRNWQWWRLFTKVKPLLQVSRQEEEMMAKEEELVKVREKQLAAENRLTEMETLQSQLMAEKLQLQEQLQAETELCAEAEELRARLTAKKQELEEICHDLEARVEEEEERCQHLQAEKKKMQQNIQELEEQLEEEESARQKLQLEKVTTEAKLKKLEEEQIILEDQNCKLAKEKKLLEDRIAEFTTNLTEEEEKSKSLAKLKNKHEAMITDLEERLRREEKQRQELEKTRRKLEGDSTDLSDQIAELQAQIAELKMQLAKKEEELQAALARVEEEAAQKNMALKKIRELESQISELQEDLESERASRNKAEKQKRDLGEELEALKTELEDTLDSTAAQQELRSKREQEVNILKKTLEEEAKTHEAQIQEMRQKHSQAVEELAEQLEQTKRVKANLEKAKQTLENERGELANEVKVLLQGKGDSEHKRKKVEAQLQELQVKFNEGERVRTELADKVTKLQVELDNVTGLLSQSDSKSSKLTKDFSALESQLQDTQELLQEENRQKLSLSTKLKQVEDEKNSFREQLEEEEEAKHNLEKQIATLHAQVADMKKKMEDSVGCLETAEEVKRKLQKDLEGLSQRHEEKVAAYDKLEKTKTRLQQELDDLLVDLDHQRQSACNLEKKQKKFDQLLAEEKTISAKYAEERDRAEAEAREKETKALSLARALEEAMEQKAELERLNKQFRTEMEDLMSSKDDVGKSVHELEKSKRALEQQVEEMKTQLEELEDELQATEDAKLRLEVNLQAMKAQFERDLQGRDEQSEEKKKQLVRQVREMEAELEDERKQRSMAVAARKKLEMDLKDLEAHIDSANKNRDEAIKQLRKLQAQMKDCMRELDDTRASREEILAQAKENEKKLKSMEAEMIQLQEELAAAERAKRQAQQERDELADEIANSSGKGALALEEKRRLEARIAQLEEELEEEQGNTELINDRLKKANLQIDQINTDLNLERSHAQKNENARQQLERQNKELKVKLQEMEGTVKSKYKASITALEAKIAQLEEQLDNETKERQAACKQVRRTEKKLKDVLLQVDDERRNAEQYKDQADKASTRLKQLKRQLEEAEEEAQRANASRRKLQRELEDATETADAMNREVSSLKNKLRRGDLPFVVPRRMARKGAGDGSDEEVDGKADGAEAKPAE
UniProt P46934: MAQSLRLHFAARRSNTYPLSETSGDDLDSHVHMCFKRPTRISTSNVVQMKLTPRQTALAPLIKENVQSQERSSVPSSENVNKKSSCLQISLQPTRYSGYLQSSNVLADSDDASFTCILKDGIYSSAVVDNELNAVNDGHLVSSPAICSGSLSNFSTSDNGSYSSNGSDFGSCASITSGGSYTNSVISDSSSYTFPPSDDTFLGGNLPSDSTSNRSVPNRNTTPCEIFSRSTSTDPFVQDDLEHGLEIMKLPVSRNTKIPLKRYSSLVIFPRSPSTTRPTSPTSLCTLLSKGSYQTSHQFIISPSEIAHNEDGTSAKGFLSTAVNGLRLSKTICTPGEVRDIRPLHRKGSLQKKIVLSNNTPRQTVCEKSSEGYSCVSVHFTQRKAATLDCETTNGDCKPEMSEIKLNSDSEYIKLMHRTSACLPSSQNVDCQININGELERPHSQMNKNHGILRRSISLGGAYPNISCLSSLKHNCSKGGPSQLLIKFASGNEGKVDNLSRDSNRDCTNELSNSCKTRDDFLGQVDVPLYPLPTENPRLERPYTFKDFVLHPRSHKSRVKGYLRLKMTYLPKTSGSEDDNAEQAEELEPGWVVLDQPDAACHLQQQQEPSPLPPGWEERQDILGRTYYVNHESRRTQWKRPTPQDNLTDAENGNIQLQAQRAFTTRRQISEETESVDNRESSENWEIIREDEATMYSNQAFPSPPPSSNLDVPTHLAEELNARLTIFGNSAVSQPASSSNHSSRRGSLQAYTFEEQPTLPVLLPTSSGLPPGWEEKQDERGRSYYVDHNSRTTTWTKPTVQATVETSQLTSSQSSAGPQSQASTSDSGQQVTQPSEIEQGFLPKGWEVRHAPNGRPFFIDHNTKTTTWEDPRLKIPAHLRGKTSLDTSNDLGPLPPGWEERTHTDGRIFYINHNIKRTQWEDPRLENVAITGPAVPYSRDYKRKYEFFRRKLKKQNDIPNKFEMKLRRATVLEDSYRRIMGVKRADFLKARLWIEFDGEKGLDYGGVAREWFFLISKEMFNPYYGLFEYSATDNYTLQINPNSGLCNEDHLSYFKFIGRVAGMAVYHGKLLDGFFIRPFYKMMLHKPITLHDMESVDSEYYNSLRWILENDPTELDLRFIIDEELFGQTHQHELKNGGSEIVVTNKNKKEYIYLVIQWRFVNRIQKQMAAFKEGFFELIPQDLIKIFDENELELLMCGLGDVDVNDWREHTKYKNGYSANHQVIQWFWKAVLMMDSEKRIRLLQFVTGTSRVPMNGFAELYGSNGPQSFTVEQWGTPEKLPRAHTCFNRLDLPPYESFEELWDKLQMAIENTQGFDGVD
UniProt P21796: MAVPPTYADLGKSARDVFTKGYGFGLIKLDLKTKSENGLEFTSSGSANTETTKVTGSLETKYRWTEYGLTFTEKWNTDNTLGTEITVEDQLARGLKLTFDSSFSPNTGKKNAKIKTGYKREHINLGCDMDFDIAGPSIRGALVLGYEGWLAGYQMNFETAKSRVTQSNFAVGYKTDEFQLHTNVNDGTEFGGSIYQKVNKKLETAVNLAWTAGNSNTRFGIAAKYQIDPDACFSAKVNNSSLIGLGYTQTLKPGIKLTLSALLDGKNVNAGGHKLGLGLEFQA

Target: T1, Flag-tagged PMEPA1a (prostate transmembrane protein, androgen induced 1, isoform a), wild type (human) (UniProt Q969W9)
T1 sequence: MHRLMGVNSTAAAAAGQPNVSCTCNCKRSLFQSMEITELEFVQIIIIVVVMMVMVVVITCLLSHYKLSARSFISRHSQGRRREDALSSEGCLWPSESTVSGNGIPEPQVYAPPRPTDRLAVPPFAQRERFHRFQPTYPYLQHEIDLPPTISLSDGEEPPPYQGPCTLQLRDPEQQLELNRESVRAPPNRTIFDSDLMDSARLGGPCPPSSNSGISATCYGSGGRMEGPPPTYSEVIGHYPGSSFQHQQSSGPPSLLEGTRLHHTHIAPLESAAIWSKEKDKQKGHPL
Assay: affinity purification with mass spectrometry; U87MG cells transfected with Flag-tagged PMEPA1a or Flag-empty-vector; Co-IP in RIPA lysate, Protein A/G magnetic beads; LC-MS/MS of the isolated complexes

Row | Substance | binding
1 | DDB1, endogenous (from UniProt Q16531 1-1140) | binds
2 | HMGB1, endogenous (from UniProt P09429 1-215) | binds
3 | MYH9, endogenous (from UniProt P35579 1-1960) | binds
4 | NEDD4 (neural precursor cell expressed, developmentally downregulated 4), endogenous (from UniProt P46934 1-1319) (enzyme) | binds
5 | VDAC1, endogenous (from UniProt P21796 1-283) | binds
